{
  "source": "patent US11564964B2",
  "about": "“Compositions and methods for the treatment of coronavirus infection” (priority 2021, dated 2023)",
  "system": "Vero-E6 cells",
  "assay": "MTT cytotoxicity assay",
  "type": "cell-based",
  "experimental": "Vero-E6 cells with the previously reported (MTT) method^34 were used to test the cytotoxic activity of the test compounds and extracts. In brief, the cells were plated in 96-well plates and incubated for 24 h at 37° C. in 5% CO2 (100 μL/well at a density of 3×10^5 cells/mL). The cells were then treated with different concentrations of extracts/the tested compounds in triplicates. The supernatant was discarded after another 24 h, and cell monolayers were washed three times with sterile 1× PBS. MTT solution was added to each well and then incubated at 37° C. for 4 h. The produced formazan crystals were dissolved with 200 μL of acidified isopropanol (0.04 M HCl in absolute isopropanol=0.073 mL HCL in 50 mL isopropanol). Thereafter, the absorbance of formazan solutions was measured at λmax 540 nm using a multi-well plate reader. The following equation was applied to calculate the percentage of cytotoxicity compared to the untreated cells:\n[formula] The produced plot of % cytotoxicity versus sample concentrations was then used to calculate the IC50s. Viral Inhibitory Concentration 50 (IC50) Determination",
  "note": "Some results were stated once for a whole list of compounds, not compound by compound. For at least one compound, name, drawing or mass did not settle the structure.",
  "data": [
    {"smiles": "O=c1cc(-c2ccc(O)cc2)oc2cc(O[C@@H]3O[C@H](CO)[C@@H](O)[C@H](O)[C@H]3O)cc(O)c12", "note": "[apigenin 7-O-glucoside]", "values": [
      {"measurement": "cytotoxicity IC50 against Vero E6 cells", "result": "over 50 μg/mL"}
    ]},
    {"smiles": "COc1cc(C[C@H]2COC(=O)[C@]2(O)Cc2ccc(O[C@@H]3O[C@H](CO)[C@@H](O)[C@H](O)[C@H]3O)c(OC)c2)ccc1O", "note": "[nortracheloside]", "values": [
      {"measurement": "cytotoxicity IC50 against Vero E6 cells", "result": "over 50 μg/mL"}
    ]}
  ]
}
